Structures are written as SMILES. Where a name gives a salt, the structure may show the parent alone. Hit rate of the full screen: of about 5,300 compounds, about 130 (2.5%) showed an effect of 50% or more. The list shows a part of the results.

For the test, the system named is M. mycetomatis strain mm55. The following applies: primary screen, metabolic activity vs growth control; 96 h, 2 µM; inhibitor.
As to `O=C(O)c1cccnc1C(=O)O` [ONC0003619, quinolinicacid], the “% viability” value amounted to 57.36%.
The figure for `CCn1c(=O)/c(=C2\Sc3ccccc3N2C)s/c1=C\c1cccc[n+]1CC` [ONC0004159, mkt077] is 98.24%; for `COC(=O)[C@]12CCC(C)(C)C[C@H]1[C@H]1C(=O)C=C3[C@@]4(C)C=C(C#N)C(=O)C(C)(C)[C@@H]4CC[C@@]3(C)[C@]1(C)CC2` [ONC0004385, bardoxolone methyl] it is 103.2%.
The figure for `CCCCC[C@H](O)/C=C/[C@H]1[C@H](O)CC(=O)[C@@H]1CCCCCCC(=O)O` [ONC0003024, alprostadil] is 66.38%; for `CC(=O)Nc1ccc(C(=O)O)cc1` [ONC0000516, acedoben] it is 86.61%.
The figure for `CC1(C)CNc2cc(NC(=O)c3cccnc3NCc3ccncc3)ccc21` [ONC0002099, motesanib] is 65.5%; for `CN[C@@H](C)C(=O)N[C@H]1CCCC[C@H]2CCC(C(=O)N[C@@H](c3ccccc3)c3cn(CCCCc4ccc(CCCCn5cc([C@@H](NC(=O)[C@@H]6CC[C@@H]7CCCC[C@H](NC(=O)[C@H](C)NC)C(=O)N76)c6ccccc6)nn5)cc4)nn3)N2C1=O` (some centres unmarked) [ONC0003931, sm164] it is 63.69%.
`Cn1cc(-c2[nH]c3cc(NC(=O)[C@H](N)C4CCCCC4)cc4c3c2C=NNC4=O)cn1` [ONC0000230, pf477736]: the “% viability” value stood at 65.6%.
In the case of `C=C[C@@]1(C)CC(=O)[C@@]2(O)[C@](C)(O1)[C@@H](OC(C)=O)[C@@H](O)C1C(C)(C)CC[C@H](O)[C@@]12C` (some centres unmarked) [ONC0002365, colforsin], the “% viability” value turned out to be 68.17%.
The figure for `COC(=O)C1=C(C)NC(C)=C(C(=O)OCC(C)C)C1c1ccccc1[N+](=O)[O-]` (centres unmarked) [ONC0001302, nisoldipine] is 76.31%.
The figure for `CC1(C)CCC(C)(C)c2cc(C(=O)Nc3ccc(C(=O)O)cc3)ccc21` [ONC0000710, am580] is 97.2%; for `O=C1Cc2c([nH]c3ccc(Br)cc23)-c2ncccc2N1` [ONC0004314] it is 117.8%.
The figure for `COc1ccc2cc(OCC3(C(=O)O)CN(C(=O)c4ccc(F)cc4)C3)ccc2c1` [ONC0002721, pf04418948] is 59.88%.
With `CCCn1c(=O)c2[nH]cnc2n(-c2ccc(Cl)cc2)c1=O` [ONC0002882, 34chlorophenyl1propyl37dihydro1hpurine26dione], the “% viability” value amounted to 107.6%.
The figure for `Oc1cc(O)c(Cl)cn1` [ONC0004771, gimeracil] is 94.06%; for `COCCn1c2c([n+](Cc3cnccn3)c1C)C(=O)c1ccccc1C2=O` [ONC0001046, ym155] it is 83.36%.
The figure for `NCCCC[C@H](NC(=O)[C@@H]1CCCN1C(=O)[C@@H]1CSSC[C@H](N)C(=O)N[C@@H](Cc2ccc(O)cc2)C(=O)N[C@@H](Cc2ccccc2)C(=O)N[C@@H](CCC(N)=O)C(=O)N[C@@H](CC(N)=O)C(=O)N1)C(=O)NCC(N)=O` [ONC0002936, lypressin] is 74.45%; for `COCCOc1ccc2c(c1)ncn2-c1ccc2cccc(N3CCC(N)CC3)c2n1` [ONC0004866, cp 673451] it is 114.1%.
With `CCOc1ccccc1-n1c(C(C)N2CCN(C(=O)COc3ccc(Cl)cc3)CC2)nc2ccccc2c1=O` (centres unmarked) [ONC0004339, erastin], the “% viability” value was 68.66%.
The figure for `CC(=O)N1CCN(C)CC1` [ONC0000037, 1acetyl4methylpiperazine] is 74.17%.
The figure for `COc1ccc(C2CC(c3ccccc3)=NN2c2ccc(S(N)(=O)=O)cc2)cc1` (centres unmarked) [ONC0002526, ml141] is 69.66%; for `CN1CCN(c2c(F)cc3c(=O)c(C(=O)O)cn4c3c2SCC4)CC1` [ONC0004109, rufloxacin hydrochloride] it is 115.8%; for `Cc1cc(-c2ccc(CC(=O)Nc3ccc(-c4cccnc4)cc3)cc2)ccn1` [ONC0005135, wntc59 c59] it is 117.7%.
Consider `C[C@]12C=CC(=O)C=C1CCC1C2[C@@H](O)C[C@@]2(C)C1CC[C@]2(O)C(=O)CO` (some centres unmarked) [ONC0005351, prednisolone], for which the “% viability” value came to 112.6%.
`OC[C@H]1O[C@@H](c2ccc(Cl)c(Cc3ccc(O[C@H]4CCOC4)cc3)c2)[C@H](O)[C@@H](O)[C@@H]1O` [ONC0004415, empagliflozin bi10773]: the “% viability” value worked out at 111.5%.
The figure for `COC(=O)C1=C(C)NC(C)=C(C(=O)OCCN(C)Cc2ccccc2)C1c1cccc([N+](=O)[O-])c1` (centres unmarked) [ONC0000686, nicardipine hydrochloride] is 131.5%.
`CN(C)c1cccc(-c2c3c(=O)n(-c4ccccc4Cl)[nH]c3cc(=O)n2C)c1` [ONC0005140, gkt137831]: the “% viability” value is reported as 98.71%.
The figure for `CCCCOc1nc(N)c2c(n1)N(Cc1cccc(CN3CCCC3)c1)CC(=O)N2` [ONC0002288, vesatolimod] is 102%.
The figure for `Cc1nc(C#Cc2ccnc(Cl)c2)c(C)n1-c1ccc(OC(F)(F)F)cc1` [ONC0005233, ctep ro4956371] is 121.6%; for `Cc1ccccc1C(OCCN(C)C)c1ccccc1` (centres unmarked) [ONC0000493, orphenadrine citrate] it is 77.66%.
The figure for `Cc1c(I)c(=O)n(-c2ccccc2)n1C` [ONC0003597, iodoantipyrine] is 87.63%.
For the compound `CC[C@@]1(O)C(=O)OCc2c1cc1n(c2=O)Cc2c-1nc1cc(F)c(C)c3c1c2[C@@H](N)CC3.CS(=O)(=O)O` [ONC0003668, exatecan mesylate], the “% viability” value was determined as 59.4%.
The figure for `Cc1ccc(/C=C2\CNC/C(=C\c3ccc(C)cc3)C2=O)cc1` [ONC0001273, nsc632839] is 77.71%; for `Cc1nn(C)c2c1C(c1ccc(C(F)(F)F)cc1)C(C#N)=C(N)O2` (centres unmarked) [ONC0001080, bqu57] it is 74.27%.
The figure for `CNCc1cc(-c2ccccc2F)n(S(=O)(=O)c2cccnc2)c1` [ONC0005239, vonoprazan fumarate tak438] is 126.5%.
The figure for `c1ccc(CCCN2CCN(CCOC(c3ccccc3)c3ccccc3)CC2)cc1` [ONC0000798, gbr12935] is 68.39%; for `COc1c2ccoc2cc2oc(=O)ccc12` [ONC0003294, bergapten] it is 47.96%; for `Cc1ccc(NC2=NCCN2)c(Cl)c1` [ONC0003745, tolonidine] it is 96.65%.
`NCCCC(N)(C(=O)O)C(F)F` (centres unmarked) [ONC0005502, eflornithinehcl]: the “% viability” value was found to be 114.1%.
The figure for `CCCCCCCCCCCC1=C(O)C(=O)C=C(O)C1=O` [ONC0001079, embelin] is 49.47%; for `O=C(N[C@@H]1CC[C@@H](c2cccc(F)c2F)CN(CC(F)(F)F)C1=O)N1CCC(n2c(=O)[nH]c3ncccc32)CC1` [ONC0001566, telcagepant] it is 94.08%.
In the case of `CCOCc1nc2c(N)nc3ccccc3c2n1CC(C)(C)O` [ONC0001869, resiquimod], the “% viability” value is 79.98%.
The figure for `NC(=O)NC1NC(=O)NC1=O` (centres unmarked) [ONC0003841, allantoin] is 66.81%.
The figure for `Nc1nc2c(ccc3ccccc32)s1` [ONC0000043, ska31] is 123.7%; for `O=C(O)CNC(=O)c1nc(Cl)c2ccccc2c1O` [ONC0001289, fg2216] it is 75.15%.
The figure for `CCCCCCCCCCCCCCCC(=O)C(F)(F)F` [ONC0001696, pacocf3] is 62.66%; for `c1ccc(Oc2nc(NC3CCCCC3)c3[nH]cnc3n2)cc1` [ONC0001307, mrs3777 oxalate] it is 79.99%.
In the case of `O=C1CCc2ccc(OCCCCN3CCN(c4cccc(Cl)c4Cl)CC3)cc2N1` [ONC0004034, aripiprazole], the “% viability” value was found to be 69.53%.
Regarding `CN(C)CCOC(c1ccc(Cl)cc1)c1ccccn1` (centres unmarked) [ONC0000751, carbinoxamine maleate], the “% viability” value is 75.65%.
The figure for `CCCCCOC(=O)Nc1nc(=O)n([C@@H]2O[C@H](C)[C@@H](O)[C@H]2O)cc1F` [ONC0004069, capecitabine] is 87.95%; for `COc1cc2c(c(OC)c1OC)-c1c(cc3c(c1OC)OCO3)C[C@H](C)[C@@H](C)C2` [ONC0005204, schisandrin b] it is 87.3%.
`CC(C)=CCC/C(C)=C/CC/C(C)=C/CSc1ccccc1C(=O)O` [ONC0001366, salirasib]: the “% viability” value is 91.38%.
Consider `COc1ccc2cc(-c3nc(-c4ccc([S+](C)[O-])cc4)[nH]c3-c3ccncc3)ccc2c1` (centres unmarked) [ONC0004861, tie2 kinase inhibitor], for which the “% viability” value is reported as 106.3%.
`CCNC(=O)[C@H]1O[C@@H](n2cnc3c(N)nc(NCCc4ccc(CCC(=O)O)cc4)nc32)[C@@H](O)[C@@H]1O` [ONC0004900, cgs 21680 hcl]: the “% viability” value stood at 86.91%.
The figure for `COc1ccc(NC(=O)c2ccc(-c3ccc(-c4noc(C)n4)cc3C)cc2)cc1N1CCN(C)CC1` [ONC0001716, gr127935] is 118.7%.
Consider `CCCCNc1ccc(C(=O)OCCN(C)C)cc1` [ONC0000552, tetracaine hydrochloride], for which the “% viability” value amounted to 91.69%.
For the compound `NC(=O)C1=CN([C@@H]2O[C@H](COP(=O)(O)OP(=O)(O)OC[C@H]3O[C@@H](n4cnc5c(N)ncnc54)[C@H](OP(=O)(O)O)[C@@H]3O)[C@@H](O)[C@H]2O)C=CC1` [ONC0002212, nadph tetracyclohexanamine], the “% viability” value is reported as 75.27%.
With `C[C@]1(COc2ccc(N3CCC(Oc4ccc(OC(F)(F)F)cc4)CC3)cc2)Cn2cc([N+](=O)[O-])nc2O1` [ONC0000375, delamanid], the “% viability” value is given as 87.74%.
The figure for `C=C[C@@H]1C[C@]1(NC(=O)[C@@H]1C[C@@H]2CN1C(=O)[C@H](C(C)(C)C)NC(=O)O[C@@H]1C[C@H]1CCCCCc1nc3ccc(OC)cc3nc1O2)C(=O)NS(=O)(=O)C1CC1` [ONC0002080, grazoprevir] is 68.44%.

The values are drawn from article PMC12670160, “A drug-repurposing screen of FDA- and EMA-approved drugs identifies two NF-κB inhibitors active against eumycetoma” (Journal of Antimicrobial Chemotherapy, 2025).
